Measured values published in patent US20230044449A1, “NICLOSAMIDE FORMULATIONS AND METHODS OF USE AS CONTRACEPTIVE” (YourChoice Therapeutics, Inc., priority 2020, published 2023).
At least one read-out could not be matched to a standard name with certainty.

Test: Saturation solubility in various solvents (PEG grades)
Type: physicochemical
From the text: Saturation solubility of niclosamide was studied in the solvents, to know the highest concentration of niclosamide that can be solubilized, as depicted in table 6. [table]

Measured: Remarks on solubilisation

O=C(Nc1ccc([N+](=O)[O-])cc1Cl)c1cc(Cl)ccc1O [niclosamide]
No clear solution,: 600 mg API in 10 g of PEG-1000, 50° C. for 40 min | 600 mg API in 10 g of PEG-2000, 50° C. for 40 min | 800 mg API in 10 g of PEG-400, 50° C. for 40 min
